Assays:
MCF7 cells = experiment: PrestoBlue cytotoxicity assay; type: cell-based, human; conditions: MCF7 breast cancer cells, 24 h treatment, linear regression
How it was run: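 MCF7 cells grown in EMEM with 10% FBS and 1% penicillin–streptomycin, seeded at 10,000 cells/well, then incubated 24 h at 37°C, 5% CO2. Exposed 24 h to eight concentrations from 250 to 1.95 µg/mL in three parallel experiments. Controls: cisplatin (positive), media, cells and DMSO. PrestoBlue added for 2 h; absorbance read at 570 nm against 600 nm reference. Percent growth inhibition calculated; IC50 by linear regression.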

MDA-MB-231 cells = experiment: PrestoBlue cytotoxicity assay; type: cell-based, human; conditions: MDA-MB-231 breast cancer cells, 24 h treatment, linear regression
How it was run: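 Cells plated at 10,000 cells/well and incubated 24 h at 37°C, 5% CO2. MCF 10A were grown in MEBM to 70–80% confluency. Treated for 24 h with eight concentrations (250, 125, 62.5, 31.25, 15.625, 7.8125, 3.9, 1.95 µg/mL) in three parallel experiments, with cisplatin as positive control.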

N.N.[Cl][Pt][Cl] [Cisplatin]
IC50 Value MCF7 (MCF7 cells): 30,08 µg/mL
IC50 Value MDA-MB-231 (MDA-MB-231 cells): 21,6 µg/mL

From PMC11844196 (Journal of Experimental Pharmacology, 2025)
